Source: patent US20180000964A1 (Genentech, published 2018)
These are yes or no findings as the source states them, for the method shown. Some entries that bind do so weakly or less than the wild type.

Key:
[1] = molecular target: T1, murine Glut1 (on cells) (murine, UniProt P17809 1-492); assay: flow cytometry, HEK293 cells stably expressing Glut1
T1 construct: whole, on cells; also called glucose transporter 1; Slc2a1
T1 sequence (looked up): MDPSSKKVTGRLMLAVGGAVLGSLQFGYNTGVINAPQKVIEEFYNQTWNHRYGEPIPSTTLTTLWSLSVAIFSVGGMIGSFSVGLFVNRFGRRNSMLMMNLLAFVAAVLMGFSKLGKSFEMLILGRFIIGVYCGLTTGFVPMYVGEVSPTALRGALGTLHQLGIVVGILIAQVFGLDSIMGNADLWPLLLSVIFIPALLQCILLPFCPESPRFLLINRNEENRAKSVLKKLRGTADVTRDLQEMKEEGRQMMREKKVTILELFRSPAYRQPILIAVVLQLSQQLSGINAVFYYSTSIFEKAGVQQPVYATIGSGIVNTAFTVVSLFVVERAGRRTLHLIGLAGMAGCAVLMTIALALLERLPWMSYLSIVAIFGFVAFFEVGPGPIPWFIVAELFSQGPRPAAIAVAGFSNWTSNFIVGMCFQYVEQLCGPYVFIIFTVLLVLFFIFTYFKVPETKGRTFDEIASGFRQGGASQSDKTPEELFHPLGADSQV

[2] = molecular target: T1, murine Glut1 (on cells); assay: flow cytometry, HEK293 cells transiently expressing murine Glut1
[3] = molecular target: T1, murine Glut1 (on cells); assay: flow cytometry titration, HEK293 cells stably expressing Glut1
[4] = molecular target: T1, murine Glut1 (on cells); assay: flow cytometry, HEK293 cells expressing Glut1, PE-labelled secondary antibody
[5] = molecular target: T1, murine Glut1 (on cells); assay: immunohistochemistry of mouse cortical tissue 1 hour after 5 mg/kg i.v. dose (in vivo binding)

Measured: binding

B1: anti-Glut1 antibody (antibody, V domains shown)
VH: QVQLQQPGSVLVRPGASVKLSCKASGYTFTGSWLHWAKQRPGQGLEWIGEIHPYSGNTNYNERFKGKATLTVDTPSSTAYVDLRSLTFEDSAVYYCAKEGGWFLRIYGMDYWGQGTSVTVSS
VL: DIVLTQSPSSLSASLGDTITITCHASQNINVWLSWYQQKPGNIPKLLIYKASNLHSGVPSRFSGSGSGTGFTLTISSLQPEDIATYYCQQGQTFPYTFGGGTRLEIK
notes: Raised by DNA immunization with hGlut1 cDNA; also called bivalent (monospecific) anti-Glut1
binds: all assays above
